Here are results for 121 molecules from PubChem BioAssay AID1508615 (Milbrandt Lab, Department of Genetics, Washington …, 2020).

Amino acid sequences for entries named in this document (tags omitted). A change or cut given only in a name is not applied to a line headed by its entry.
UniProt Q6SZW1: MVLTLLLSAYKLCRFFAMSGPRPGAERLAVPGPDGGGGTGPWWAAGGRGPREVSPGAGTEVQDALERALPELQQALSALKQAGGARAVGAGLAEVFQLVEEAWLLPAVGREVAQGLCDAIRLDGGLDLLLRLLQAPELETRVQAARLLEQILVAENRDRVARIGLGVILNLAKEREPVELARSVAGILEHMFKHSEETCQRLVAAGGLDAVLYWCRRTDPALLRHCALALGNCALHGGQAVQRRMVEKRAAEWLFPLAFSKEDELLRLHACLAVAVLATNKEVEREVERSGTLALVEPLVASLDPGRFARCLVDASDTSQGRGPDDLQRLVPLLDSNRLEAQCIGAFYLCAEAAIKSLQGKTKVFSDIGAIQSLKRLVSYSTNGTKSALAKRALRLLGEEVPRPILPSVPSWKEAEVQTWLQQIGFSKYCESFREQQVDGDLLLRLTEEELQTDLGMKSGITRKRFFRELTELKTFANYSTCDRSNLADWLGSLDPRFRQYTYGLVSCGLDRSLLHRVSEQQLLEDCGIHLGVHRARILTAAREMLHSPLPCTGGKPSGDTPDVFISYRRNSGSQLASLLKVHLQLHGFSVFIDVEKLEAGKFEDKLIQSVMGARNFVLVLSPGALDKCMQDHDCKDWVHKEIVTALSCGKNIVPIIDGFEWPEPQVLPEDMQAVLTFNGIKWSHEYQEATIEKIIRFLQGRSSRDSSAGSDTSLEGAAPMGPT

In all, about 1,600 compounds went through this assay and about 20 (1%) were called active.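 Rule for the calls: active = ratio of uncleaved NAD to its breakdown product ADP-ribose above 4, meaning the enzyme was inhibited; inactive = the rest.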 The list shows a part of the results.

For this assay, the target named is NAD(+) hydrolase SARM1 (Homo sapiens) (UniProt Q6SZW1). Kind of assay: inhibition of SAM-TIR NAD hydrolysis to ADPR – cell lysate, HPLC readout, primary screen (AID 1508615).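 Note: substrate NAD at 5 µM with 60 min at 37 °C.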 Conditions: HEK293T SAM-TIR lysate, NAD/ADPR ratio by HPLC; at 5 µM; stronger effect = higher value.
Take `O=C(O)c1cc2cc(OCc3ccccc3)ccc2[nH]1`: the NAD/ADPR ratio is inactive: 3.
To `COc1cc(O)c(C(=O)/C=C/c2ccccc2)c(OC)c1` belongs inactive: 3; to `O=c1cc(-c2nn[nH]n2)[nH]c(=O)[nH]1`, inactive: 3.
To `CC(=O)Oc1ccc(C(c2ccc(OC(C)=O)cc2)c2ccccn2)cc1` belongs inactive: 3.
To `CC(C)Oc1ccc(C(=O)O)cc1` belongs inactive: 3.
In the case of `c1ccc2c(c1)Nc1cc3ccccc3cc1S2`, the NAD/ADPR ratio was inactive: 3.
`O=c1[nH]cnc2c1ncn2Cc1ccc([N+](=O)[O-])cc1`: the NAD/ADPR ratio is inactive: 3.
The figure for `CC1CCCC(CC(=O)O)(CC(=O)O)C1` (stereo unspecified) is inactive: 3; for `CCOC(=O)Nc1c(Cl)n(C)c(=O)n(C)c1=O` it is inactive: 3; for `C=CCNC(=S)NCC` it is inactive: 3.
As for `CCOC(=O)C1(C#N)C(=O)CSC1=Nc1ccccc1Cl` (stereo unspecified), the NAD/ADPR ratio is inactive: 3.
As for `CSc1nc(Cl)c(Br)c(Nc2c[nH]c(=O)[nH]c2=O)n1`, the NAD/ADPR ratio was inactive: 3.
The figure for `Cc1ccc(NC(=O)N2CCCCC2)cc1[N+](=O)[O-]` is inactive: 3.
To `CSc1n[nH]c(-c2cccs2)n1` belongs inactive: 3; to `CCC(=Cc1ccc(CC)cn1)CC`, inactive: 3; to `Cn1ncc2c(Sc3ccc(Cl)cc3)ncnc21`, inactive: 3.
The figure for `Nc1ccccc1-n1nc2ccc3ccccc3c2n1` is inactive: 3; for `Cn1ncc2c(Nc3ccc(Br)cc3)nc(Nc3ccc(Br)cc3)nc21` it is inactive: 3; for `CN1CCN(C(=O)Nc2ccc([N+](=O)[O-])cc2)CC1` it is inactive: 3.
Take `O=C(c1ccccc1)c1ccc(Sc2ccc([N+](=O)[O-])cc2)cc1`: the NAD/ADPR ratio is inactive: 3.
For `Cc1cccc(C)c1NC(=O)NCc1ccco1`, the NAD/ADPR ratio was inactive: 3.
With `CN(C)c1ccc(/C=C2/C=C(c3ccc4c(c3)CCCC4)OC2=O)cc1`, the NAD/ADPR ratio was inactive: 3.
The figure for `C1CCC(NC2=NCCO2)CC1` is inactive: 3; for `Cc1nc(Nc2ccc(F)cc2)nc(Nc2ccc(F)cc2)c1[N+](=O)[O-]` it is inactive: 3; for `C=CCN=C(NC#N)SC` it is inactive: 3.
Take `CC(C)CNC(=O)/C=C/C(=O)O`: the NAD/ADPR ratio was inactive: 3.
The figure for `Cc1ccc(S(=O)(=O)NNC(=O)C23CCC(CC2)C3)cc1` is inactive: 3; for `COc1ccc2c(C)cc(C)nc2n1` it is inactive: 3.
`CC(C)(C)C(=O)Nc1ccc(NC(=O)C(C)(C)C)cc1`: the NAD/ADPR ratio is inactive: 3.
To `Cc1nc(N)nc(Cl)c1CCC1OCCO1` belongs inactive: 3; to `CCC(=O)C=Cc1ccc(N(C)C)cc1`, inactive: 3; to `CCOC(=O)c1[nH]c(CO)c(C(=O)OCC)c1C`, inactive: 3.
To `CCCOc1ccc(-c2nc(-c3ccc(N)cc3)cs2)cc1` belongs inactive: 3; to `COC(=O)c1cc(C)c(C)cc1NC1OC(CO)C(O)C1O` (stereo unspecified), inactive: 3; to `COC(=O)C1=C(C)NC(C)=C(C(=O)OC)C(N2C(=O)CCC2=O)C1` (stereo unspecified), inactive: 3.
To `Cc1c(O)ccc2c(O)c(NC(=O)c3ccc4c(c3)CCC(C)(C)O4)c(=O)oc12` belongs inactive: 3; to `O=C(Nc1nnc(C(F)(F)F)s1)c1c(F)cccc1F`, inactive: 3.
Take `CN1C=C/C(=C\[N+](=O)[O-])N(C)C1=O`: the NAD/ADPR ratio was inactive: 3.
To `CN(C)CCC1c2ccc(Cl)cc2CCc2cccnc21` (stereo unspecified) (tested in a mixture with another compound) belongs inactive: 3.
For the molecule `CN1C(=O)c2ccccc2Cc2c(NCc3ccccc3)ncnc21`, the NAD/ADPR ratio was inactive: 3.
The figure for `Nc1nc(N)c(N=Nc2ccc(S(N)(=O)=O)cc2)c(=O)[nH]1` is inactive: 3; for `O=C(Nc1ccccc1)C1=C(Nc2ccccc2)CSC1` it is inactive: 3.
In the case of `O=c1cc[nH]c2c(Cl)cccc12`, the NAD/ADPR ratio was inactive: 3.
To `CC(C)(C)C1=NN=C2c3ccccc3C(=O)C21` (stereo unspecified) belongs inactive: 3; to `CN(C)Cc1c[nH]c2nccnc12`, inactive: 3; to `Cc1c(O)cnc2nn(-c3ccccc3)c(=N)n12`, inactive: 3.
To `Brc1csc2ncccc12` belongs inactive: 3; to `c1ccc(-c2nc3ccccc3s2)nc1`, inactive: 3; to `C1CCc2nc3c(nc2C1)CCCC3`, inactive: 3.
For `O=[N+]([O-])c1ccc(Sc2ncccn2)c([N+](=O)[O-])c1`, the NAD/ADPR ratio is inactive: 3.
To `COc1cc(/C=C2\CCOC2=O)cc(OC)c1OC` belongs inactive: 3; to `Cn1c(=O)c2c(nc(OCCc3ccccc3)n2C)n(C)c1=O`, inactive: 3.
On to `COC1OC2COC(c3ccccc3)OC2C(=O)C1NC(=O)c1ccccc1` (stereo unspecified), for which the NAD/ADPR ratio was inactive: 3.
The figure for `CNC(=O)OCN1C(=O)C2CC=CCC2C1=O` (stereo unspecified) is inactive: 3; for `Cc1ccc(NC(=O)N2CCN(C)CC2)cc1NC(=O)N1CCN(C)CC1` it is inactive: 3; for `Cn1c(=O)c2c(ncn2CCOC(=O)C(C)(C)Oc2ccc(Cl)cc2)n(C)c1=O` it is inactive: 3.
To `O=c1cc(-c2ccc(Cl)cc2)[nH]c2ccccc12` belongs inactive: 3; to `Cc1c(Cc2ccccc2)[n+](=O)c2ccccc2n1[O-]`, inactive: 3.
The figure for `Cc1ccc2c(c1)c1ccc3c(c1n2C)C(=O)C=CC3=O` is active: 5.6.
With `Cc1nc2ccc(Cl)cn2c1[N+](=O)[O-]`, the NAD/ADPR ratio was inactive: 3.
To `Cc1cc(C)n(C(N)=NC(=O)c2ccccc2)n1` belongs inactive: 3; to `Cc1ccc2c(c1)sc1nncn12`, inactive: 3.
For the molecule `Cc1cc(=O)c2c(o1)C(=O)c1occc1C2=O`, the NAD/ADPR ratio was inactive: 3.
The figure for `CN1CCC(=C2c3ccccc3C(O)c3ccccc32)CC1` (stereo unspecified) is inactive: 3; for `c1ccc(NCCSc2nc3ccccc3s2)cc1` it is inactive: 3.
The figure for `CCN(CC)c1ccc(/C=C/c2cc(-c3ccccc3)c3ccccc3n2)cc1` is inactive: 3.
The figure for `c1ccc2nc(NN=C3CCCCC3)ccc2c1` is inactive: 3; for `CCOc1ccc(NC(=O)Nc2cc(C(C)C)c(O)cc2C)cc1` it is inactive: 3; for `C#CCNc1ccc(C(=O)OCC)cc1` it is inactive: 3.
With `O=C1C=C(c2ccccc2)OC(=O)C1C(=O)c1ccccc1` (stereo unspecified), the NAD/ADPR ratio is inactive: 3.
In the case of `CNc1ncn(-c2c(C)cccc2C)c(=O)n1`, the NAD/ADPR ratio is inactive: 3.
Take `O=[N+]([O-])c1cc(F)c2cccnc2c1O`: the NAD/ADPR ratio is inactive: 3.
The figure for `Nc1cc2c3c(cccc3c1)C(=O)N(CCN1CCCC1)C2=O` is inactive: 3; for `Cc1ccc(S(=O)(=O)N2CC=C(N)N2)cc1` it is inactive: 3; for `COc1ccc(-c2cc(-c3ccccc3)c(-c3ccccc3)nn2)cc1` it is inactive: 3.
To `Cc1ccncc1C(N)=O` belongs inactive: 3; to `CCOC(=O)c1csc(-c2ccc(COC(=O)c3ccccc3)o2)n1`, inactive: 3.
The figure for `CC(C)=CCC/C(C)=C/C(N)=O` is inactive: 3; for `CCOP(=O)(OCC)/C(C#N)=C/c1ccc([N+](=O)[O-])cc1` it is inactive: 3; for `c1ccc(-c2nnc3oc(-c4cccs4)nn23)cc1` it is inactive: 3.
Turning to `C=C(C)CN1C(=O)C(C)S/C1=N\N=C1/SCC(=O)N1C` (stereo unspecified), the NAD/ADPR ratio was inactive: 3.
To `O=C(CC1C=Cc2ccccc2N1C(=O)c1ccccc1)c1ccccc1` (stereo unspecified) belongs inactive: 3.
The figure for `S=c1[nH]c2ccccc2c2ccccc12` is inactive: 3; for `Cc1cc(=O)n2[nH]c(-c3ccc(C(C)(C)C)cc3)cc2n1` it is inactive: 3.
To `CCc1nc(NC(C)(C)C)c2cnn(-c3ccccc3)c2n1` belongs inactive: 3.
Regarding `O=C(O)c1ccccc1C(=O)Nc1cccc([N+](=O)[O-])c1`, the NAD/ADPR ratio was inactive: 3.
In the case of `Nc1ccccc1Sc1cc(Cl)nnc1Cl`, the NAD/ADPR ratio is inactive: 3.
For the molecule `Clc1c(Cl)c(Cl)c2n[nH]nc2c1Cl`, the NAD/ADPR ratio was inactive: 3.
The figure for `c1ccc2c(c1)nnn2-c1ccncc1` is inactive: 3; for `CC(=O)Nc1ccc2cc3ccc(NC(C)=O)cc3nc2c1` it is inactive: 3; for `Cc1nnsc1C(=O)NCc1c(F)cccc1Cl` it is inactive: 3.
To `NCC(=O)Nc1ccc(Cl)cc1C(=O)c1ccc[nH]1` belongs inactive: 3; to `O=C(O)c1cc(N2C(=O)C=CC2=O)cc(N2C(=O)C=CC2=O)c1`, inactive: 3.
To `CCOc1ccc(/C=C2\CCc3ccccc3C2=O)cc1` belongs inactive: 3; to `CSc1ncc2[nH]c(C(O)c3ccccc3)nc2n1` (stereo unspecified), inactive: 3; to `Oc1ccc2c(ccc3[nH]cnc32)c1`, inactive: 3.
As for `CCOC(=O)Nc1ccc2nc(-c3cscn3)[nH]c2c1`, the NAD/ADPR ratio was inactive: 3.
The figure for `CCOC(=O)c1c[nH][nH]c1=O` is inactive: 3; for `Oc1ccc(Cc2ccccc2Cl)c(O)c1` it is inactive: 3.
As for `O=C(Nc1ccc(F)cc1)Oc1ccc[nH]c1=O`, the NAD/ADPR ratio is inactive: 3.
To `c1ccc(-n2nnnc2-c2cccc3ccccc23)cc1` belongs inactive: 3; to `Cn1cnc([N+](=O)[O-])c1S(=O)(=O)Oc1cccc2ccccc12`, inactive: 3.
The figure for `CCCCNCC1CCCO1` (stereo unspecified) is inactive: 3; for `Oc1ccccc1-c1nnco1` it is inactive: 3.
To `O=C1c2ccccc2C(=O)c2c(Nc3ccc(CCO)cc3)ccc(O)c21` belongs inactive: 3.
Take `Oc1c(CN2CCN(c3ccccc3)CC2)cc(Br)c2cccnc12`: the NAD/ADPR ratio is inactive: 3.
The figure for `CC(C)N(C(=O)c1cccc([N+](=O)[O-])c1)C(C)C` is inactive: 3; for `Nc1ncnc2c1ncn2C1OC(CO)C(O)C1N` (stereo unspecified) it is inactive: 3; for `Oc1c(Cl)cc(Cl)cc1C1Nc2ccccc2-n2cccc21` (stereo unspecified) it is inactive: 3.
Regarding `CCC(C)(C)c1ccc(Oc2cccc(C(=O)O)c2)cc1`, the NAD/ADPR ratio was inactive: 3.
To `CCc1cccc2[nH]c3cc([N+](=O)[O-])ccc3c12` belongs inactive: 3.
To `CCC1=C(c2ccc(OC)cc2)CCC(C(=O)O)C1C` (stereo unspecified) belongs inactive: 3; to `NC1=C(O)C(=O)C(c2ccccc2)O1` (stereo unspecified), inactive: 3; to `CC(C)COC(=O)NC1c2ccccc2Oc2ccccc21`, inactive: 3.
The figure for `CNC(=O)c1nn(C)c(=O)[nH]c1=O` is inactive: 3; for `Cn1c(=S)c2[nH]c(SCCN3CCCC3)nc2n(C)c1=O` it is inactive: 3.
For the molecule `Cc1cc(=O)[nH]c(N)n1`, the NAD/ADPR ratio is inactive: 3.
The figure for `Nc1ccc(N=Nc2ccc(O)cc2)c(N)n1` is inactive: 3.
In the case of `CC(=O)OCC1OC(COC(C)=O)(c2ccc(C)cc2)C(OC(C)=O)C1OC(C)=O` (stereo unspecified), the NAD/ADPR ratio was inactive: 3.
To `CCCCNc1nc(N)ncc1[N+](=O)[O-]` belongs inactive: 3.
To `CCOC(=O)c1ccc(Nc2sc(C(=O)c3cccc([N+](=O)[O-])c3)c(N)c2C#N)cc1` belongs inactive: 3.
